The exact form of at least one protein or probe is not confirmed. At least one verdict rests on a figure or table, not on a statement of the authors. For some of these results: Protein sequences can lack the tags named with them.
Legend:
Assay in all cases: EMSA
[1] = target: T1, ETV3 (human) (UniProt P41162); settings: EMSA conditions not printed (as previously described, ref 5); protein stock in 10 mM Tris pH 7.9, 0.5 mM EDTA, 200 mM KCl, 1 mM DTT, 10% glycerol; recombinant protein; residues 1-512; protein details: N-term 6xHis
T1 sequence (looked up): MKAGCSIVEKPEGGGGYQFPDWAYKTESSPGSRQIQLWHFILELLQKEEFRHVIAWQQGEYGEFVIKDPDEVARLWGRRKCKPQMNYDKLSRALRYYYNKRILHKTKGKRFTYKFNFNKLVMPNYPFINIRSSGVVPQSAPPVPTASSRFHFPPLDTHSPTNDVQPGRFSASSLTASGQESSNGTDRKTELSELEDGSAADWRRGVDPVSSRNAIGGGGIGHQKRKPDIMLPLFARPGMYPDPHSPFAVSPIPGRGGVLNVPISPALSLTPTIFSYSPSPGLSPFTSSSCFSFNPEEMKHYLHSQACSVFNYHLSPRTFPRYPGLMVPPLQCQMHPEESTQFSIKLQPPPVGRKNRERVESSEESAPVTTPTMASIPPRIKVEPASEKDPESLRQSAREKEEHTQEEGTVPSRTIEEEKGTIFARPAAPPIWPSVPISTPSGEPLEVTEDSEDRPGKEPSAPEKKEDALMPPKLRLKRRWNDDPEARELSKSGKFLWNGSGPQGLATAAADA

Chains of the proteins cited; added tags and fusions are not shown. A line that says so, or that is headed by a name, gives the form on record, which may keep a tag or linker.
ELF2 (human), one chain, as listed by the source: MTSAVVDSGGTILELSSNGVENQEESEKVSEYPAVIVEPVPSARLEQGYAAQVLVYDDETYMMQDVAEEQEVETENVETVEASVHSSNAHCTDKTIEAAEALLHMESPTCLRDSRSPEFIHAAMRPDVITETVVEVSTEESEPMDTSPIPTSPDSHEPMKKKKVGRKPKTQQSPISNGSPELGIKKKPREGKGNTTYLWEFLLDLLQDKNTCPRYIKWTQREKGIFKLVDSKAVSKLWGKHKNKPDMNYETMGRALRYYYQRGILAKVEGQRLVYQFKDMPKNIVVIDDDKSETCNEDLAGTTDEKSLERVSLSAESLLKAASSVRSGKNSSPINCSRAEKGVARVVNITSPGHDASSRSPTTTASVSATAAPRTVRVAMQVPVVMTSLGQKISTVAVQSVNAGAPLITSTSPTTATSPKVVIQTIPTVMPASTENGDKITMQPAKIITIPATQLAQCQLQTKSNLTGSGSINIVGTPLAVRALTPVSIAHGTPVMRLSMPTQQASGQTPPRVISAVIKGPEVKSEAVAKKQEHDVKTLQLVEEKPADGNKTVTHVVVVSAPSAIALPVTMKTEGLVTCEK

[2] = system: SPI1 (human); settings: EMSA conditions not printed (as previously described, ref 5); protein stock in 10 mM Tris pH 7.9, 0.5 mM EDTA, 200 mM KCl, 1 mM DTT, 10% glycerol; recombinant protein; residues 1-271; protein details: N-term 6xHis
[3] = system: T2, ELK4 (human); settings: EMSA conditions not printed (as previously described, ref 5); protein stock in 10 mM Tris pH 7.9, 0.5 mM EDTA, 200 mM KCl, 1 mM DTT, 10% glycerol; recombinant protein; residues 1-405; protein details: N-term 6xHis
T2 sequence (looked up): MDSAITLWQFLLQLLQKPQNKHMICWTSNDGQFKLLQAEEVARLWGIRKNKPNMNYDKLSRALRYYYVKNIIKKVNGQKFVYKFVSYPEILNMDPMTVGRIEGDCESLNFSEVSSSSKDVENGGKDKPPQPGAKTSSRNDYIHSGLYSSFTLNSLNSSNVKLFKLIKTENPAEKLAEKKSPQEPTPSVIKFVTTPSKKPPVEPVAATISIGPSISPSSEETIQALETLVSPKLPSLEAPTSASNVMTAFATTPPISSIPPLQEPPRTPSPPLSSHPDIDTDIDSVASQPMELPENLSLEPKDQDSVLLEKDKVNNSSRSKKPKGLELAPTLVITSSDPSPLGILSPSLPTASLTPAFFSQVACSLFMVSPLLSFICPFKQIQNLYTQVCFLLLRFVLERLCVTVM

[4] = target: T3, ERG (human) (UniProt P11308); settings: EMSA conditions not printed (as previously described, ref 5); protein stock in 10 mM Tris pH 7.9, 0.5 mM EDTA, 200 mM KCl, 1 mM DTT, 10% glycerol; recombinant protein; residues 1-479; protein details: N-term 6xHis
T3 sequence (looked up): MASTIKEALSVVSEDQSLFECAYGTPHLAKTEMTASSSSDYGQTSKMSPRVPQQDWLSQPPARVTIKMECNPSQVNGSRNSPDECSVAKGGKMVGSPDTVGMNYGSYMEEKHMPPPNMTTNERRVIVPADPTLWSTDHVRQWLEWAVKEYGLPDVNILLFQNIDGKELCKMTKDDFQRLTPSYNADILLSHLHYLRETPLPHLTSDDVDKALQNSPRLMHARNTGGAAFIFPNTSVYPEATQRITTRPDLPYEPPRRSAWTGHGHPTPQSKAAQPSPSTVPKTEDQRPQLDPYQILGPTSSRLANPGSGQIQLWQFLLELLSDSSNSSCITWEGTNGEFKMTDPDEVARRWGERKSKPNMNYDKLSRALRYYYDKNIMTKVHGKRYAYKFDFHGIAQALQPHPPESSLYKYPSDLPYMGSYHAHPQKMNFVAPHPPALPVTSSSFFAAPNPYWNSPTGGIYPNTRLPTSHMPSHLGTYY

[5] = system: T4, ELF5 (human); settings: EMSA conditions not printed (as previously described, ref 5); protein stock in 10 mM Tris pH 7.9, 0.5 mM EDTA, 200 mM KCl, 1 mM DTT, 10% glycerol; recombinant protein; residues 1-255; protein details: N-term 6xHis
T4 sequence (looked up): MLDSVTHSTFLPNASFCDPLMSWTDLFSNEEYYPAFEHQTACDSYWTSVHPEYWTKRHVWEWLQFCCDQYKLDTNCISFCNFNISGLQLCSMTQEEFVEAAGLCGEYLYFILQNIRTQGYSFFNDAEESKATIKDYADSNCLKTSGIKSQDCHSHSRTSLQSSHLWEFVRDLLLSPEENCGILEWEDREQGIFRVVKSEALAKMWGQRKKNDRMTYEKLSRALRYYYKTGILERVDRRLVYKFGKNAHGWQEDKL

[6] = system: ELF2 (human); settings: EMSA conditions not printed (as previously described, ref 5); protein stock in 10 mM Tris pH 7.9, 0.5 mM EDTA, 200 mM KCl, 1 mM DTT, 10% glycerol; recombinant protein; residues 1-581; protein details: N-term 6xHis
[7] = target: T5, ELK3 (human) (UniProt P41970); settings: EMSA conditions not printed (as previously described, ref 5); protein stock in 10 mM Tris pH 7.9, 0.5 mM EDTA, 200 mM KCl, 1 mM DTT, 10% glycerol; recombinant protein; residues 1-407; protein details: N-term 6xHis
T5 sequence (looked up): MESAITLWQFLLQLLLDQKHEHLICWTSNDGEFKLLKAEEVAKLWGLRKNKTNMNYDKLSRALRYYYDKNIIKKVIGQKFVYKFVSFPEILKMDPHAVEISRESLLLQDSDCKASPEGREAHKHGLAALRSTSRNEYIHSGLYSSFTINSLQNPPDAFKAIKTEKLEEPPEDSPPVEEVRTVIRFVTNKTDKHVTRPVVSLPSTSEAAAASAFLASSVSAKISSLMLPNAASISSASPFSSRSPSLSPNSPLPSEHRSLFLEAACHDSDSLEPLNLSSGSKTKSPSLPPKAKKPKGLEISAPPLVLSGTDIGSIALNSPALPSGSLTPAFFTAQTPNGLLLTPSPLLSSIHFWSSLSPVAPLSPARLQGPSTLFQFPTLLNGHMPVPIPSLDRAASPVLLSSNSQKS

Measured: binding result

GCCACGGCCCAGGAAGTGACTCACCCACCCTGATG (double strand) [ETS consensus EMSA probe]
binds: all assays above
